In patent US5188830A, “Methods for thrombolytic therapy” (Merck & Co., Inc., priority 1990, dated 1993):
At least one structure is not confirmed: it was looked up by name or label, or the drawing left a doubt.

Test system: blood clots
Assay: in vitro clot lysis assay (release of solubilized 125I-fibrin-derived fragments, lysis initiated by TPA)
Details: inhibitor concentration not given, no exogenous plasminogen, TPA at physiological and pharmacological levels (FIG. 3)
Procedure: In the assay, whole blood or plasma is charged with ^125 I-fibrinogen. Thrombin is added to initiate clot formation and subsequently incubated for 2 hours to complete the cross-linking by endogenous Factor XIII. Factor XIIIa inhibitor is added prior to clot initiation or at various times during the 2-hour incubation. At the end of this period, the labelled clot is washed and lysis is initiated by exogenous tissue plasminogen activator (TPA). Exogenous plasminogen is employed in some experiments. Endogenous plasminogen is used for others. Clot dissolution as a function of time is monitored by the release of solubilized ^125 I-fibrin-derived fragments.
In FIGS. 1 and 2, the open symbols indicate absence of cerulenin and the closed symbols indicate the presence of 200 μM cerulenin at the time of clot formation. Clot lysis is conducted in buffer, pH 7.5; 5 ng/mL TPA represents approximate physiologic concentration. 50 to […] represents pharmacologic concentration range. […] FIG. 2 studies employed glu-plasminogen levels at approximately 10 percent physiologic level (12 μ/mL).

## CC(=O)CSc1n[n+]2c(C)csc2s1 [Thiadiazolium perchlorate compound, 2-(1-acetonylthio)-5-methylthiazolo(2,3-b)-1,3,4-thiadiazolium perchlorate]
  rates and extents of clot lysis: enhanced rates and extents of lysis
